# Test results from article doi:10.1101/2019.12.31.889139.
# Amino acid sequences for entries named in this document (tags omitted). Residues count along the entry.
# UniProt P99999: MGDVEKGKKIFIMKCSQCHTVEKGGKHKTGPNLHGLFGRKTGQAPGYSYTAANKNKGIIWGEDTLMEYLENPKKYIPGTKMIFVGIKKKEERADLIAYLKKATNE
# UniProt Q07954, residues 20-4544: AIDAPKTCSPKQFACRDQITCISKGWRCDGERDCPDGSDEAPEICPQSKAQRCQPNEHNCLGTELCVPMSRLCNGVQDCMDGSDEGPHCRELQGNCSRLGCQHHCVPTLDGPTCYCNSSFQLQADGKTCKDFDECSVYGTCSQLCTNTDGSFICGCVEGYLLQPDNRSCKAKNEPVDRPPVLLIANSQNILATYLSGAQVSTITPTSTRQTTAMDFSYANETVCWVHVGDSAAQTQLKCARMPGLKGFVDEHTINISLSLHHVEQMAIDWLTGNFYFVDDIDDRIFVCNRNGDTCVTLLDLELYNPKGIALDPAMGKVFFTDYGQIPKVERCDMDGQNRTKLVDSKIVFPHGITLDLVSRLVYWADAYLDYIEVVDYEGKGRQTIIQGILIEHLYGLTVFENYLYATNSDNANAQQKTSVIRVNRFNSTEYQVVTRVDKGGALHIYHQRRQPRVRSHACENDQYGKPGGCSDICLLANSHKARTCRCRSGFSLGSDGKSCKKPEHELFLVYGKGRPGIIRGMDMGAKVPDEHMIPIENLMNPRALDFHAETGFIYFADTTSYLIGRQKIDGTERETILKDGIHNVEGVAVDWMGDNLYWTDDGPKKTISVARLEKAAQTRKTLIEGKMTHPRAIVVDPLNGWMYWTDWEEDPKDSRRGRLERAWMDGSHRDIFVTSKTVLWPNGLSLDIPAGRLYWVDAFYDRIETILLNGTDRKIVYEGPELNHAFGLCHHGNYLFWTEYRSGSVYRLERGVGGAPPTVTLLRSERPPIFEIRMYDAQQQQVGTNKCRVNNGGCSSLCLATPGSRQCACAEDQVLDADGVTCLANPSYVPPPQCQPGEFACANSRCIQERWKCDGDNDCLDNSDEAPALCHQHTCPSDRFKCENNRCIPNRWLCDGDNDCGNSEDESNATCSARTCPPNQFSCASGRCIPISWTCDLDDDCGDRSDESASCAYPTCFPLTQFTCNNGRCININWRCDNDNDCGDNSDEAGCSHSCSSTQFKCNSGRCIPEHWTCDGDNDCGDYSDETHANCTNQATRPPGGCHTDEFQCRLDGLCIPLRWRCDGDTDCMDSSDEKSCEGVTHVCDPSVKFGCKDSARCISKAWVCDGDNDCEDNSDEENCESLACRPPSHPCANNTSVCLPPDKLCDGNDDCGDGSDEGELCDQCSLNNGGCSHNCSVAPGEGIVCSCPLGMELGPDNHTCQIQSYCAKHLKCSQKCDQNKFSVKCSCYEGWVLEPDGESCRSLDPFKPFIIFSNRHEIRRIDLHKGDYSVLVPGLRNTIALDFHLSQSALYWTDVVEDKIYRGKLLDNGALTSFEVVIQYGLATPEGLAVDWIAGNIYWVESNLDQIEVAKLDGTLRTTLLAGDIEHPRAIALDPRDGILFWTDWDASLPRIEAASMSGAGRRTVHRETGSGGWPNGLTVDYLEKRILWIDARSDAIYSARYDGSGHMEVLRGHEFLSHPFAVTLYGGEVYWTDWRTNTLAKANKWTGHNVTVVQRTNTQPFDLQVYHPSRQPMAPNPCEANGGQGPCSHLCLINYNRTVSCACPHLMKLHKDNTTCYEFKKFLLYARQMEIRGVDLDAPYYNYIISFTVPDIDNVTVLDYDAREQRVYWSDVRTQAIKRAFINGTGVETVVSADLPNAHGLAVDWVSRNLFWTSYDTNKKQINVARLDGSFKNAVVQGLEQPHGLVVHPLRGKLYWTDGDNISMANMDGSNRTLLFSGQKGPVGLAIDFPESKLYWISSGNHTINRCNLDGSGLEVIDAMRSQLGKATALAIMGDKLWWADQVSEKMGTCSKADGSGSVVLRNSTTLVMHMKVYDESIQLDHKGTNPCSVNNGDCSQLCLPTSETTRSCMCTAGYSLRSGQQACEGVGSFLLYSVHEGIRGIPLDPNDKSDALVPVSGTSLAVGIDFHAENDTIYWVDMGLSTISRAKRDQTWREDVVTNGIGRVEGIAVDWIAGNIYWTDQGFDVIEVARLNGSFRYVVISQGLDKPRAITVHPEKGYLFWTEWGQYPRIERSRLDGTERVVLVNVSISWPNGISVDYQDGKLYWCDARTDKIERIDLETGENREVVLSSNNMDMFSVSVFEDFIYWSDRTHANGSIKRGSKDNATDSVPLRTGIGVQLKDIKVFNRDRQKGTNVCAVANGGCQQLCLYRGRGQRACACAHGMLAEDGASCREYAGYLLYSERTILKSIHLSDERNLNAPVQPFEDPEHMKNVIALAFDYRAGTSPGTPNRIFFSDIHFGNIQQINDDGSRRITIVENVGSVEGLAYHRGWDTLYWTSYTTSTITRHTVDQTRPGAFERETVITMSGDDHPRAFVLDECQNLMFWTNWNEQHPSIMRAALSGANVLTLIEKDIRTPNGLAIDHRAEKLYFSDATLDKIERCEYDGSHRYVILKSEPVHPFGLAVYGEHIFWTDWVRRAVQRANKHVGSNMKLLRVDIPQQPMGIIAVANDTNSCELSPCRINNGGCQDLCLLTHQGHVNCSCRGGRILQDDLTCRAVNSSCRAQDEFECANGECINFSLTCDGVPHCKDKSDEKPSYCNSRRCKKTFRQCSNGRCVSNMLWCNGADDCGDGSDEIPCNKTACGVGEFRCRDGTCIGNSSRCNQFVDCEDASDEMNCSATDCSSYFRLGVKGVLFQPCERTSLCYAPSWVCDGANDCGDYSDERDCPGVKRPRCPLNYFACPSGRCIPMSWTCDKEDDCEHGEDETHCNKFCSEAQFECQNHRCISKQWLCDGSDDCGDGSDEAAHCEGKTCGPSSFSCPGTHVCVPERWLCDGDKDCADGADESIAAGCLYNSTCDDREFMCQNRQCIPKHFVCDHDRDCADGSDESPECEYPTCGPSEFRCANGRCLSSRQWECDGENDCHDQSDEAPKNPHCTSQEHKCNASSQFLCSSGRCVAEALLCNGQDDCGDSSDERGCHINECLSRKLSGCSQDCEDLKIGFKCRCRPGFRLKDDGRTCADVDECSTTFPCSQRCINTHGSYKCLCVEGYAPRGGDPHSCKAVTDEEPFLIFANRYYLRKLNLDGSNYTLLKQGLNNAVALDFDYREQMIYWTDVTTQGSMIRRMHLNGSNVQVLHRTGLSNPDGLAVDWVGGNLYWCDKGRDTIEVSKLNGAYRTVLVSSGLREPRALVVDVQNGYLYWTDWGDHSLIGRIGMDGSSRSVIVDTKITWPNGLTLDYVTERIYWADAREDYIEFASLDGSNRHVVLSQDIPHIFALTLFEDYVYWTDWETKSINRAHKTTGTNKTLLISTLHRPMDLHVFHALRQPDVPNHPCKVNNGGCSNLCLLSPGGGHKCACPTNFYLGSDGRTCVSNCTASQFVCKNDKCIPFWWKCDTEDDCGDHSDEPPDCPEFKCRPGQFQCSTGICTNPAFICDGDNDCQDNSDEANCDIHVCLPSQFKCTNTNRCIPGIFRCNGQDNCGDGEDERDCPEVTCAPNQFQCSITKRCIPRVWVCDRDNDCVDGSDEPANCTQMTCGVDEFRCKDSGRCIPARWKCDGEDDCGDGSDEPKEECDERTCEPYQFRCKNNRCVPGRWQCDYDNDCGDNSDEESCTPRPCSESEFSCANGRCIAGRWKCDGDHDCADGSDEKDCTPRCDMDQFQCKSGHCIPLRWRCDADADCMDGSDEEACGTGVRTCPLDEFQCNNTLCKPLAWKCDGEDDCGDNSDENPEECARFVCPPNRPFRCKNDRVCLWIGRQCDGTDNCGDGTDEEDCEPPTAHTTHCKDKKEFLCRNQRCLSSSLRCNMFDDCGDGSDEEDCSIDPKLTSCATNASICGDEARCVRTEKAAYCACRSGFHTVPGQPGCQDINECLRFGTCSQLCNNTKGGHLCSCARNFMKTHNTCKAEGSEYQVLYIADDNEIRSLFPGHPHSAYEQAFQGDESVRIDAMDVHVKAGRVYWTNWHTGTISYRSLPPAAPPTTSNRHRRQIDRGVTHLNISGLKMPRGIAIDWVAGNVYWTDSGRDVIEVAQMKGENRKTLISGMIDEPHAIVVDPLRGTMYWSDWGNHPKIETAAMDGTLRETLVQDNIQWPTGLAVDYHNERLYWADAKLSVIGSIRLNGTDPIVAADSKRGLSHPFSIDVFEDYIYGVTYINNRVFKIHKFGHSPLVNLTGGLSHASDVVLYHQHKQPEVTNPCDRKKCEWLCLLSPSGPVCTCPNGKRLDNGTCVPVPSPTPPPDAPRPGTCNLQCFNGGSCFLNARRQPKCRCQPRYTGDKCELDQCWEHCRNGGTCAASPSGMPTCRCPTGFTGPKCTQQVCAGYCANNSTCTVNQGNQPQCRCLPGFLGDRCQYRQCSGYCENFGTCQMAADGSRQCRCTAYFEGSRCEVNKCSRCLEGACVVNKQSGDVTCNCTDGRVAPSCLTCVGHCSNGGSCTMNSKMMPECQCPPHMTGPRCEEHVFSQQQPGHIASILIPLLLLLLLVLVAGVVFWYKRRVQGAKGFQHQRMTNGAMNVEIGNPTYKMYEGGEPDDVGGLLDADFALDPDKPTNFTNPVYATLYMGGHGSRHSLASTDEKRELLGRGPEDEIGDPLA
# UniProt O95197: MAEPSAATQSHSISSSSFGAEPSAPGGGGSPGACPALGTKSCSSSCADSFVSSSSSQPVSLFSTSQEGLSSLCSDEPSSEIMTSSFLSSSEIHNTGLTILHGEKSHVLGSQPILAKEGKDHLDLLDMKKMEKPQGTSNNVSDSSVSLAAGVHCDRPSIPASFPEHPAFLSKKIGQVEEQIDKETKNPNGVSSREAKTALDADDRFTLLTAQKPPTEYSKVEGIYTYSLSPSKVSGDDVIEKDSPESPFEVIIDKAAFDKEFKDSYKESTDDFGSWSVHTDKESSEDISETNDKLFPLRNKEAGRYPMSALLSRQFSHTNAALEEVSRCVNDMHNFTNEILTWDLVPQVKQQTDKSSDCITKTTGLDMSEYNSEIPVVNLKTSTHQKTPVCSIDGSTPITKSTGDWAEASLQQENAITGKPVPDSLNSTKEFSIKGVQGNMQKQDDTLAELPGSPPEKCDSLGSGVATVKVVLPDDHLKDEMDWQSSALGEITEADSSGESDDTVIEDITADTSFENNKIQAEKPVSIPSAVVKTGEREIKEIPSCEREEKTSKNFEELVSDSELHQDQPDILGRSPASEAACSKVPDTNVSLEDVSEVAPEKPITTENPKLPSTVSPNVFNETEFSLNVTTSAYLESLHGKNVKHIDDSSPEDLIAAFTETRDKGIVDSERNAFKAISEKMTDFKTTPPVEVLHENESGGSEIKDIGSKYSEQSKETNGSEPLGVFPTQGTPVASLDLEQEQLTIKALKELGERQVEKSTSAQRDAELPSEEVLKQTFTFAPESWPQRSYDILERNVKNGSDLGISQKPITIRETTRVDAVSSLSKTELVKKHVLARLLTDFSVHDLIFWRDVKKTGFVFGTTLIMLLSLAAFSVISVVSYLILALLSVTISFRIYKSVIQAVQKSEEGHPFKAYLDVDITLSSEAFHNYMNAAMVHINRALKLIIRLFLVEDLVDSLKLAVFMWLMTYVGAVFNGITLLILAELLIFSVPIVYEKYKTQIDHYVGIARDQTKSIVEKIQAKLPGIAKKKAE
# UniProt P05067, residues 18-770: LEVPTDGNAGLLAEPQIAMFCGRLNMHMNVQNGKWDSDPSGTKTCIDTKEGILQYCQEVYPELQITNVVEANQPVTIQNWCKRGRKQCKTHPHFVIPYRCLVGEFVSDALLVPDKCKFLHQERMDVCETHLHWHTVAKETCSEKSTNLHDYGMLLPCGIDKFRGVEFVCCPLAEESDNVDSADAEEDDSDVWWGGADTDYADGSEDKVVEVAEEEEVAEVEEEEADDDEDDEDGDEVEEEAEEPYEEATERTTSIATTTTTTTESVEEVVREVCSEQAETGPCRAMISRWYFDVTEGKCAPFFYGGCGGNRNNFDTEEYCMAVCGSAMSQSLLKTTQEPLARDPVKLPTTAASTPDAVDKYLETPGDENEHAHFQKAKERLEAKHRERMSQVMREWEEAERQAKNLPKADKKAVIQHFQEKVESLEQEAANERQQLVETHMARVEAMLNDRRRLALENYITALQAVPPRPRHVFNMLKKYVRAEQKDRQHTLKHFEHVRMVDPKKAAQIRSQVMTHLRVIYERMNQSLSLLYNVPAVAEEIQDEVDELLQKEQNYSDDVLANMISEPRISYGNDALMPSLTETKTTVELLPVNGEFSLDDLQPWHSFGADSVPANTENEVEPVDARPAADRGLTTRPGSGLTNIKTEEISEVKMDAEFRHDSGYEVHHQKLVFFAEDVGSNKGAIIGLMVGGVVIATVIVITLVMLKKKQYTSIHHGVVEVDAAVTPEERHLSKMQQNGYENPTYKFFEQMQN
# Read-outs that look alike come from different tables or passages of the source. These are yes or no findings as the source states them, for the method shown. In cells and extracts the contact can be indirect. A yes stands for co-enrichment or nearness to the bait. Other partners may have been found. Where a sequence is shown, tags or fusion partners need not be part of it.
# T1: METTL7B-BirA fusion protein (human) (UniProt Q6UX53)
# T1 sequence: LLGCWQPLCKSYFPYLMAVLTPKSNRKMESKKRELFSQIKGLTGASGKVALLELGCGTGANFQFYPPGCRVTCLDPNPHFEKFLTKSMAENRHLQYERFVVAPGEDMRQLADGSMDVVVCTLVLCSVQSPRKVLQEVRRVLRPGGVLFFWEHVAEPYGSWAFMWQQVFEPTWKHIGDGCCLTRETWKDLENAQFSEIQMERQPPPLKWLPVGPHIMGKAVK
# B1: APBB1 (protein, UniProt O00213 1-710)
# chain: MSVPSSLSQSAINANSHGGPALSLPLPLHAAHNQLLNAKLQATAVGPKDLRSAMGEGGGPEPGPANAKWLKEGQNQLRRAATAHRDQNRNVTLTLAEEASQEPEMAPLGPKGLIHLYSELELSAHNAANRGLRGPGLIISTQEQGPDEGEEKAAGEAEEEEEDDDDEEEEEDLSSPPGLPEPLESVEAPPRPQALTDGPREHSKSASLLFGMRNSAASDEDSSWATLSQGSPSYGSPEDTDSFWNPNAFETDSDLPAGWMRVQDTSGTYYWHIPTGTTQWEPPGRASPSQGSSPQEESQLTWTGFAHGEGFEDGEFWKDEPSDEAPMELGLKEPEEGTLTFPAQSLSPEPLPQEEEKLPPRNTNPGIKCFAVRSLGWVEMTEEELAPGRSSVAVNNCIRQLSYHKNNLHDPMSGGWGEGKDLLLQLEDETLKLVEPQSQALLHAQPIISIRVWGVGRDSGRERDFAYVARDKLTQMLKCHVFRCEAPAKNIATSLHEICSKIMAERRNARCLVNGLSLDHSKLVDVPFQVEFPAPKNELVQKFQVYYLGNVPVAKPVGVDVINGALESVLSSSSREQWTPSHVSVAPATLTILHQQTEAVLGECRVRFLSFLAVGRDVHTFAFIMAAGPASFCCHMFWCEPNAASLSEAVQAACMLRYQKCLDARSQASTSCLPAPPAESVARRVGWTVRRGVQSLWGSLKPKRLGAHTP
# What was measured:
# [1] = target: T1, METTL7B-BirA fusion protein (human); test: proximity labelling
# [2] = target: T1, METTL7B-BirA fusion protein (human); test: proximity labelling; remark: listed apart in the source
Molecule,binding [1],binding [2]
ADAM17 (from UniProt P78536),binds,–
ATF6 (from UniProt P18850 1-670),binds,–
ATP5B (from UniProt P06576 48-529),binds,–
CDK5 (from UniProt Q00535 1-292),binds,–
CYCS (from UniProt P99999 1-105),binds,–
EIF2AK3 (from UniProt Q9NZJ5 30-1116),binds,–
ITPR2 (from UniProt Q14571 1-2701),binds,–
LRP1 (from UniProt Q07954),binds,binds
RTN3 (from UniProt O95197 1-1032),binds,–
UQCRFS1 (from UniProt P47985),binds,–
amyloid precursor protein (from UniProt P05067 18-770),binds,binds
B1,binds,–
